{"source": "patent US12178838B2", "about": "“Synthetic neuromodulatory peptides” (Lactocore, Inc., priority 2019, dated 2024)", "key": {"zebrafish (Danio rerio)": {"system": "zebrafish (Danio rerio)", "assay": "Shoaling behavior test in zebrafish", "format": "in vivo", "details": "ip, FQSE 10 mg/kg", "procedure": "The tested substances were injected into the zebrafish intraperitoneally (ip) using an insulin syringe (0.5 ml, 30 g) 10 minutes before the test. The saline solution (0.9% NaCl) was used as a solvent. Anesthesia and immobilization of the animals were achieved by placing them in water at a temperature of 10° C. Control group fish received intraperitoneal injections of an equivalent volume of solvent, also after going through a pre-cooling procedure.\nA Plexiglas container with a removable partition (shown in FIG. 4) was used as a setup for investigating the shoaling behavior of zebrafish. A shoal of 5 adult Danio rerio specimens was placed into in the small compartment; and the test fish was placed in a large compartment. Diffused lighting in this installation was provided by the usual lighting of the room (about 200 Lx).\nThe shoaling behavior test was performed as described in Parker et al., 2014. […] The video recording began simultaneously with placing the zebrafish in the set-up and recorded for 5 minutes. […] During the processing of the records, the residence time and the number of visits to the three conventional zones of the aquarium wall (near the “shoal” in the middle of the aquarium, and near the opposite side; all three were equal in size) were recorded."}, "Sprague-Dawley rats": {"system": "Sprague-Dawley rats", "assay": "Chronic restraint stress model: Porsolt Forced Swimming test", "format": "in vivo", "details": "CRS, FQSE 3 mg/kg intranasal", "procedure": "To simulate a depressive state, experimental animals were placed in the individual restrainers (“Open Science”, Russia) for six hours daily for 14 days (hereinafter “chronic restraint stress=CRS”). In order to study the neurotrophic effect of FQSE (SEQ ID NO:10), the animals were divided into 5 groups, 10 individuals each. The groups are as follows: Group 1, control unstressed animals, receiving 10 μl (a pair of 5 μl doses) of saline intranasally; Group 2, stressed animals, receiving 10 pI of saline intranasal (CRS+Veh); Group 3, stressed animals, receiving fluoxetine (FO) at a dose of 5 mg/kg intraperitoneal (CRS+FO, positive control); Group 4, stressed animals, receiving a peptide drug at a dose of 0.3 mg/kg in 10 pI of saline intranasal (CRS+FQSE (SEQ ID NO:10) 0.3); Group 5, stressed animals, receiving a peptide drug at a dose of 3 mg/kg in […] of saline intranasal (CRS+FQSE (SEQ ID NO:10) 3). The administration of drugs was carried out daily, 30 minutes before placing rats in the restrainers. […]\nThe changes in motor activity and emotional state of animals were evaluated in the Open Field (OFT) and Porsolt Forced Swimming tests (FST) fourteen days after the start of the experiment. […] For three minutes the horizontal and vertical motor activity was measured. The total number of crossed squares, as well as the length of the distance, traveled, and the number of rears was counted. […]"}, "[1]": {"target": "FQSE (SEQ ID NO:10)-specific binding sites in the rat cortex", "assay": "Radioligand analysis with [3H] FQSE on rat cortex membranes", "procedure": "After decapitation, the tissues were immediately frozen in liquid nitrogen and stored in a low-temperature refrigerator at −80° C. On the day of the experiment, brain tissue (cortex, about 300 mg) was homogenized in a Teflon-glass Potter homogenizer 1:25 W:V in the buffer (50 mM Tris-HCl, pH 7.4). The homogenate was centrifuged at 40,000 g for 20 min. The obtained precipitate was homogenized in a buffer (50 mM Tris-HCl; pH=7.4) and centrifuged again at 40,000 g for 20 min. A similar procedure was performed again. The precipitate was resuspended in 15 ml of the same buffer and used for the radioligand analysis.\nThe incubation mixture (final volume 0.5 ml) contained 50 μl […]\nAt the end of the incubation, the samples were filtered through Ge/C glass fiber filters (Whatman) previously moistened with 0.3% polyethyleneimine for 2 hours at room temperature. Each tube was washed twice with cold buffer, then the filters were washed twice with the same volume of buffer.\nThe filters were air-dried and transferred to scintillation vials. Filters were poured with 5 ml of toluene-based scintillation liquid (4 g PPO, 0.2 g POPOP per liter of toluene).\nTo construct the curves of the radioactive ligand's displacement each concentration of the test substance was taken in 3 replications. […]"}}, "note": "Like-named read-outs stand apart in the source and are kept apart here. At least one peptide structure holds a part that was inferred or is arguable (an end, a ring closure or a residue). Residues, ends and D or L forms follow the SMILES beside them.", "data": [{"smiles": "NC(=O)CC[C@H](NC(=O)[C@@H](N)Cc1ccccc1)C(=O)N[C@@H](CO)C(=O)N[C@@H](CCC(=O)O)C(=O)O", "note": "[FQSE] (H-FQSE-OH)", "values": [{"measurement": "latent period of leaving the sector with the shoal", "setting": "zebrafish (Danio rerio)", "result": "decreases"}, {"measurement": "time spent outside the shoaling compartment (near the wall opposite to the shoal)", "setting": "zebrafish (Danio rerio); diazepam 5 mg/kg, DKTE 1 mg/kg, vs control", "result": "visible tendency to prolong"}, {"measurement": "duration of active swimming", "setting": "Sprague-Dawley rats; FO 5 mg/kg intraperitoneal", "result": "spent more time active swimming"}, {"measurement": "time spent passive (inactive) swimming", "setting": "Sprague-Dawley rats; FO 5 mg/kg, vs CRS+Veh", "result": "significantly reduced"}, {"measurement": "IC50", "setting": "[1]; Series 2, incubation at RT for 25 minutes, read-out: IC50 with respect to [3H]-FQSE binding", "result": "2 ± 0.1", "unit": "µM"}, {"measurement": "IC50", "setting": "[1]; as stated in summary and conclusions, read-out: IC50 for the [3H]-FQSE binding sites in rat cortex membranes", "result": 2, "unit": "µM"}, {"measurement": "percentage of specific binding", "setting": "[1]; buffer with added salts NaCl, KCl, KH2PO4, CaCl2, MgCl2", "result": 63, "unit": "%"}, {"measurement": "% percentage of specific binding of total binding", "setting": "[1]; condition 1: 10 min, 4 °C", "result": 47, "unit": "%"}, {"measurement": "% percentage of specific binding of total binding", "setting": "[1]; condition 2: 20 min, 4 °C", "result": 48, "unit": "%"}, {"measurement": "% percentage of specific binding of total binding", "setting": "[1]; condition 3: 10 min, 37 °C", "result": 72, "unit": "%"}, {"measurement": "% percentage of specific binding of total binding", "setting": "[1]; condition 4: 20 min, 37 °C", "result": 79, "unit": "%"}, {"measurement": "% percentage of specific binding of total binding", "setting": "[1]; condition 5: 30 min, 37 °C", "result": 77, "unit": "%"}, {"measurement": "% percentage of specific binding of total binding", "setting": "[1]; condition 6: 20 min, 24 °C", "result": 75, "unit": "%"}, {"measurement": "% percentage of specific binding of total binding", "setting": "[1]; condition 7 (selected): 25 min, 24 °C", "result": 86, "unit": "%"}, {"measurement": "% percentage of specific binding of total binding", "setting": "[1]; condition 8: 30 min, 24 °C", "result": 78, "unit": "%"}]}]}
